# Results: PubChem BioAssay AID662 (National Center for Advancing Translational Sciences (NCATS), 2007)
# Several values for one entry are separate records, joined by “and”; a condition that tells them apart may be missing. Identical values can stand only once. This is one part of the list. Further columns of the screen follow, without active or inactive calls. Compounds called inactive in the main read-out are mostly missing here. Words in brackets tell the shape of the fitted curve; partial curves, single points and poor fits give uncertain potencies.
# Experiment: Cell signaling CRE-BLA (Fsk stim)
# Details: CHO CRE-bla reporter (cAMP response element driving beta-lactamase), forskolin EC10, beta-lactamase ratio; measured here: 460 nm blue channel
# Summary of the method: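 Using CellSensor CRE-bla CHO cells in Opti-MEM with 0.5% dialyzed FBS, compounds were titrated with EC10 NKH 477 for 3 h at 37 °C. CCF4 ratio (460/530 nm) gave %Activity; AC50 derived.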
row,SMILES,AC50
1,COc1ccccc1NC(=O)COc1ccc(CO)cc1Cl,"10 µM [rising, partial curve]"
2,COc1cc([C@H]2c3cc4c(cc3[C@@H](O)[C@@H]3COC(=O)[C@H]23)OCO4)cc(OC)c1OC,"63.1 nM [rising, full curve] and 10 nM [rising, full curve]"
3,COCC(C)n1c(SCc2ccc(C(=O)OC)o2)nc2ccccc2c1=O (stereo not drawn),"7.94 µM [rising, partial curve]"
4,O=C(OCC(=O)N1CCN(C(=O)COC(=O)c2ccncc2)CC1)c1ccncc1,"0.0316 µM [falling, full curve, poor fit]"
5,CN1/C(=C\C(=O)c2ccco2)C(C)(C)c2ccccc21,"12.6 µM [rising, partial curve]"
6,COc1ccc(N2CCN(c3ncnc4nc[nH]c34)CC2)cc1,"12.6 µM [rising, partial curve]"
7,Cc1cccn2c(=O)c3cc(C(=O)N4CCN(C(=O)c5ccco5)CC4)n(C)c3nc12,"12.6 µM [rising, partial curve]"
8,O=C(CN1C(=O)NC(Cc2ccccc2)C1=O)Nc1ccccc1 (stereo not drawn),"0.00631 µM [falling, full curve, poor fit]"
9,O=C(O)c1ccccc1C(=O)NCC(O)COCC1CC=CCC1 (stereo not drawn),"1 µM [rising, single point]"
10,Cc1noc(NS(=O)(=O)c2ccc(NC(=O)c3cnc4scc(C)n4c3=O)cc2)c1C,"15.8 µM [rising, single point]"
11,COc1ccccc1C(=O)NCCc1nc2ccccc2n1C,"10 µM [rising, partial curve]"
12,COc1ccc2oc(=O)c(NC(=O)C3CCCCC3)cc2c1,"2 µM [rising, single point]"
13,O=c1[nH]c2ccc(S(=O)(=O)N3CCN(C4CCCCC4)CC3)cc2[nH]c1=O,"0.251 µM [rising, full curve]"
14,Cc1cc(NC(=O)C2CCCCC2)nc2c1c(=O)oc1ccccc12,"25.1 µM [rising, single point]"
15,COc1ccccc1OCCC(=O)OCC(=O)NC(=O)NC(C)(C)C,"0.00398 µM [falling, full curve, poor fit]"
16,CCN(CC)S(=O)(=O)c1cc(C(=O)NC2CCCCC2)ccc1C,"0.398 µM [rising, full curve, poor fit]"
17,COc1ccc(CCNC(=O)CSc2nc(-c3ccco3)cc(C(F)(F)F)n2)cc1OC,"15.8 µM [rising, single point]"
18,COc1cc2c(C(=O)NCCCOC(C)C)cn(CC(C)C)c(=O)c2cc1OC,"10 µM [rising, partial curve]"
19,Cc1nc(SCC(=O)NCc2ccco2)c2c3c(sc2n1)CCCC3,"6.31 µM [rising, partial curve]"
20,CC(C)c1nc2oc3c(NCc4ccccn4)ncnc3c2c2c1COC(C)(C)C2,"10 µM [rising, partial curve]"
21,CCCC(=O)NCCc1cc2c(C)ccc(C)c2[nH]c1=O,"10 µM [rising, partial curve]"
22,CC(=O)Nc1ccc(C2(O)COc3ccccc3O2)cc1 (stereo not drawn),"0.501 µM [falling, full curve]"

row,SMILES,AC50
1,COc1nc(-c2ccccc2)ccc1-c1noc(C)n1,"12.6 µM [rising, partial curve]"
2,CCCCNC(=O)C1CCCN(S(=O)(=O)c2ccc(-n3cnnn3)cc2)C1 (stereo not drawn),"0.126 µM [falling, single point]"
3,CCCOP(=O)(c1ccc(N(C)C)cc1)C(O)c1cc(OC)c(OC)c(OC)c1 (stereo not drawn),"2 µM [falling, full curve]"
4,COCCn1c(=O)c(-c2ccc(F)cc2)nc2cnc(Oc3cccc(Cl)c3)nc21,"25.1 µM [rising, single point]"
5,Cc1csc2ncc(C(=O)NCc3ccccc3Cl)c(=O)n12,"7.94 µM [rising, partial curve]"
6,N#Cc1c(N)nc2c(c1N)CC(=O)N2c1ccccc1-c1ccccc1,"12.6 µM [rising, single point]"
7,O=C(CCCCCn1c(SCc2ccncc2)nc2ccccc2c1=O)NCc1ccco1,"20 µM [rising, single point]"
8,O=c1c(CCc2ccccc2)nc2cnc(N3CCNCC3)nc2n1-c1ccccc1,"12.6 µM [rising, partial curve]"
9,COc1ccccc1NC(=O)COC(=O)CNC(=O)c1ccc(OC)c(OC)c1,"10 µM [rising, single point]"
10,CC(=O)N(Cc1cc2ccc(C)c(C)c2n2nnnc12)C1CCCC1,"2.51 µM [rising, partial curve]"
11,COc1ccc2cc3cc(C(=O)NCc4ccc5c(c4)OCO5)oc3nc2c1,"0.0794 µM [rising, full curve, poor fit]"
12,O=C(NCc1cccs1)c1nc2c(nnn2Cc2ccccc2Cl)c(=O)[nH]1,"25.1 µM [rising, single point]"
13,Cn1c(=O)c2c(ncn2CC(O)CNc2ccc(Cl)cc2)n(C)c1=O (stereo not drawn),"10 µM [rising, single point]"
14,O=C(COC(=O)c1ccccc1F)c1ccc(-n2nncc2-c2ccco2)cc1,"12.6 µM [rising, single point]"
15,CCCCCCOC(=O)C(C#N)c1nc2ccccc2nc1N1CCN(C)CC1 (stereo not drawn),"25.1 µM [rising, single point]"
16,COc1cccc(-n2c(SCC(=O)NC3CCCCC3)nc3n[nH]c(C)c3c2=N)c1,"7.94 µM [rising, partial curve]"
17,COc1cc2cc(CN(Cc3nnnn3Cc3ccccc3)CC3CCCO3)c(=O)[nH]c2cc1OC (stereo not drawn),"12.6 µM [rising, single point]"
18,CCOC(=O)N1CCC(Nc2cccc(SC)c2)CC1,"20 µM [falling, single point]"
19,CCN1CCCC1CNc1ncnc2c1[nH]c1ccc(F)cc12 (stereo not drawn),"25.1 µM [rising, single point]"
20,CC(=O)Nc1ccc(C(=O)OCCC(C)C)cc1,"1.58 µM [rising, partial curve]"
21,COc1c(Cl)cc(Cl)cc1/C=N/n1cnnc1,"0.0126 µM [rising, full curve]"
